Results from the supplement of paper PMC11006884.
This list holds what a sample rich in targets with a hit left over. This is a noisy data set. The list shows a part of the results, in another mix than the full data.

Chains of the proteins cited; added tags and fusions are not shown. Lines headed by an entry give the natural chain unless they say otherwise; changes in a name come on top.
UniProt Q9UIF9: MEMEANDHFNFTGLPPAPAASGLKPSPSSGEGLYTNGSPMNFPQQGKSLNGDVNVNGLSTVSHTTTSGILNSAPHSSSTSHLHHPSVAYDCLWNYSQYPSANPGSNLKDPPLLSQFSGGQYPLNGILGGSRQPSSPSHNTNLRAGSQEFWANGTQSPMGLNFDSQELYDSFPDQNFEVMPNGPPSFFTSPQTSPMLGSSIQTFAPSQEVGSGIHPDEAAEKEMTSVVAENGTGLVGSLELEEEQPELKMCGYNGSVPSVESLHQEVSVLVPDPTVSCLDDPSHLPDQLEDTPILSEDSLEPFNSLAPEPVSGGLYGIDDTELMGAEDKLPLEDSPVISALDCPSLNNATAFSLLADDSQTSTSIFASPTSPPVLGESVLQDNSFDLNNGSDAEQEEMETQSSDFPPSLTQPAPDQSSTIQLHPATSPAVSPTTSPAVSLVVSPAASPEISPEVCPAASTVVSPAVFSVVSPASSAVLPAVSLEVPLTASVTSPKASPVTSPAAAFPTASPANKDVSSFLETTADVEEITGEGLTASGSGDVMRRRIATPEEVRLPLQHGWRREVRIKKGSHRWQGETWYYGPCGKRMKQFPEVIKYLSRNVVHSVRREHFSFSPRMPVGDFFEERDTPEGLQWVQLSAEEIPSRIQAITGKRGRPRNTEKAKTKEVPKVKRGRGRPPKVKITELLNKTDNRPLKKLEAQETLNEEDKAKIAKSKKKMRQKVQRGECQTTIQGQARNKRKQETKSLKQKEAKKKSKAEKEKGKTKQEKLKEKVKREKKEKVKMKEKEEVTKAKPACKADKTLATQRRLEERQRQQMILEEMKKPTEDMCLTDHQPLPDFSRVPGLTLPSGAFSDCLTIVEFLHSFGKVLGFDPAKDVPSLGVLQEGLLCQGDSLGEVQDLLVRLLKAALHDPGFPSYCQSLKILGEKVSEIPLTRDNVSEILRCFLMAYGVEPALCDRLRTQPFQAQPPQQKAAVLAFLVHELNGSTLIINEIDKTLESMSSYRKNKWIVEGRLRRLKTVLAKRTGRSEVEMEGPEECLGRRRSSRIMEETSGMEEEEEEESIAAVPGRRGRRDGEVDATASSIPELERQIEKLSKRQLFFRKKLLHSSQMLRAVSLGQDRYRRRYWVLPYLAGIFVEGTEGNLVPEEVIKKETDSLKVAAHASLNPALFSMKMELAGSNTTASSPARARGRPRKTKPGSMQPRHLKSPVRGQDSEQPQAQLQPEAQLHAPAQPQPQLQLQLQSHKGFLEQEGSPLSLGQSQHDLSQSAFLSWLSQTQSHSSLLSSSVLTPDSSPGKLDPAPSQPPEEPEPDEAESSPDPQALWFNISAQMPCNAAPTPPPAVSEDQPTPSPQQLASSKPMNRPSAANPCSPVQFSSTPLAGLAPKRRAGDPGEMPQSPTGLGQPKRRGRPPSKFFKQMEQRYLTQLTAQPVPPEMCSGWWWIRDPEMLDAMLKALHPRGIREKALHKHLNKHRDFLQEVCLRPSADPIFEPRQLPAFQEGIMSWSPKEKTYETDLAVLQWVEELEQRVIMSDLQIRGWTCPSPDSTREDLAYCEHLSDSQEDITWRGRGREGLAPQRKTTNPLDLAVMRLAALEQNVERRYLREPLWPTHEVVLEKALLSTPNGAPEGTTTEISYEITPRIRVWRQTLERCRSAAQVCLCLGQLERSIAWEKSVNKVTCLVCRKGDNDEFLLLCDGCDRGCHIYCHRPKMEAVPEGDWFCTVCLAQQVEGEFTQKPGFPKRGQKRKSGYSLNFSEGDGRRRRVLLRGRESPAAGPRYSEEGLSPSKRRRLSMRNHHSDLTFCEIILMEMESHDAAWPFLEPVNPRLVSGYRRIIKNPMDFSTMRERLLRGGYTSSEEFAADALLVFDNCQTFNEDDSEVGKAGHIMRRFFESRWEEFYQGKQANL
UniProt Q9UHW5, whole entry, looked up: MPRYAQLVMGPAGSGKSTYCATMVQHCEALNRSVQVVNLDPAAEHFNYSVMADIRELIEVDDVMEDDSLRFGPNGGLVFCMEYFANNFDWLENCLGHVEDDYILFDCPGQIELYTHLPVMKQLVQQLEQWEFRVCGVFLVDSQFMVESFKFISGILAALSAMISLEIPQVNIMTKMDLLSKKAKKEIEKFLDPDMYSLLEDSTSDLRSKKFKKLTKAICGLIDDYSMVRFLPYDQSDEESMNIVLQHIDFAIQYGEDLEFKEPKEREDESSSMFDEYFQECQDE
UniProt Q9UK45: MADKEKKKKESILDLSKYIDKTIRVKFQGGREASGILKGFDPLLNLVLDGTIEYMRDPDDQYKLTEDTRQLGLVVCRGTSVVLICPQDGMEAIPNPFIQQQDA
UniProt Q9UMS0: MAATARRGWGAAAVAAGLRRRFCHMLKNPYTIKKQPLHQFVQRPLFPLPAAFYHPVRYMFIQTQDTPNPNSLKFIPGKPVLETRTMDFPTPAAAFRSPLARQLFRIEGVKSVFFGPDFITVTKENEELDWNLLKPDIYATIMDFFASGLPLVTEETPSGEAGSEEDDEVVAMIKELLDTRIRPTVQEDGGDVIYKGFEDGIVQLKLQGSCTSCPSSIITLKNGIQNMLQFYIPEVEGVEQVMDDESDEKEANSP
UniProt Q9UKA8, whole entry: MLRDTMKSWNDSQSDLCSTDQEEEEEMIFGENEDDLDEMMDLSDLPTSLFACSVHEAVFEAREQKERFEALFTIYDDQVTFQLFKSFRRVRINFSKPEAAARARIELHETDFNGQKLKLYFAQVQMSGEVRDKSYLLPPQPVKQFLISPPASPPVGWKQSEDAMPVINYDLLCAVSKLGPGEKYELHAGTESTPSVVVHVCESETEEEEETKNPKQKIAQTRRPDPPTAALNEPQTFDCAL
UniProt Q9UJ41, whole entry, looked up: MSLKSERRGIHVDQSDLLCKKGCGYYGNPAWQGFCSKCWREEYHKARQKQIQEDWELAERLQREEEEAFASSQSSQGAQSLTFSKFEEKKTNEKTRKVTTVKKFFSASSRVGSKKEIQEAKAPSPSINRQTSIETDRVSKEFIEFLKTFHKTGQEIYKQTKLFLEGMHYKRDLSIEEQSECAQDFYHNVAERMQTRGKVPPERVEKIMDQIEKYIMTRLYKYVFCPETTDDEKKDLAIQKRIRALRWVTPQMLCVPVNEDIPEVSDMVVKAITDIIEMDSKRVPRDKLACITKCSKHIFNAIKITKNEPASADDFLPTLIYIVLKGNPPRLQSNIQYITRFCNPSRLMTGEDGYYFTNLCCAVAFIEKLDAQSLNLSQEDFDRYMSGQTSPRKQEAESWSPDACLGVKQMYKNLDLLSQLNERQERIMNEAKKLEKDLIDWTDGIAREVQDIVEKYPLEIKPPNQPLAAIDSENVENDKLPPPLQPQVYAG
UniProt Q9UNS1: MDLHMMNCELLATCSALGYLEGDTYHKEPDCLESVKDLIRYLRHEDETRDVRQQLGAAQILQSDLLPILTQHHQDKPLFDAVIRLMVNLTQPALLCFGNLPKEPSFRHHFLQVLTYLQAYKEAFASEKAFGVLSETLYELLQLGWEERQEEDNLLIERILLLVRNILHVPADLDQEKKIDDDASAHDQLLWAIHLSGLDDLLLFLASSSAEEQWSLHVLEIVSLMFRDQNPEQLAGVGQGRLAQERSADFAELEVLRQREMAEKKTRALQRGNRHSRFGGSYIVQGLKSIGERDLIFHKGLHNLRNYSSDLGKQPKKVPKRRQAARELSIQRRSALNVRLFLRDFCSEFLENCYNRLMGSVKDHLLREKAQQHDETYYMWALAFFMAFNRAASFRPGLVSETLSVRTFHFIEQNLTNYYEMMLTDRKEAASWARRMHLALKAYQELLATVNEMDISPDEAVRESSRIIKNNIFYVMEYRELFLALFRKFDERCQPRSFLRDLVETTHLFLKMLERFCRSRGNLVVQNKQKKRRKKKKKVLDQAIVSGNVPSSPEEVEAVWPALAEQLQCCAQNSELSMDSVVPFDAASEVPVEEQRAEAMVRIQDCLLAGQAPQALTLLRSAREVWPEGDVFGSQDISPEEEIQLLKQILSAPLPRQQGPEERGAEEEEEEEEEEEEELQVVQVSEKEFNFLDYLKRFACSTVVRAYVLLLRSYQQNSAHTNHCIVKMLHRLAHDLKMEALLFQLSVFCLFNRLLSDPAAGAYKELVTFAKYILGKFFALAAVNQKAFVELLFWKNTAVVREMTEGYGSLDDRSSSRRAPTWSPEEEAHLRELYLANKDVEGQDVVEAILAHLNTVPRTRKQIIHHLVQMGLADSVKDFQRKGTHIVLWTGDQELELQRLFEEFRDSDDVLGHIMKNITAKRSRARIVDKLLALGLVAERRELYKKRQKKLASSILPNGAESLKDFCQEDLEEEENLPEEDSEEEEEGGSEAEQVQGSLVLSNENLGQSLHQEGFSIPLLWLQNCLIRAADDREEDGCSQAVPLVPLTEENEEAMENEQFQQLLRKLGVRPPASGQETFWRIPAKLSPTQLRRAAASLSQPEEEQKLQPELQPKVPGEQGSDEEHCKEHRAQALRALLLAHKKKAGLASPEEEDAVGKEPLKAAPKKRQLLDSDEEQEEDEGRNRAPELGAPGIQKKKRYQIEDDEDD
UniProt Q9UP83: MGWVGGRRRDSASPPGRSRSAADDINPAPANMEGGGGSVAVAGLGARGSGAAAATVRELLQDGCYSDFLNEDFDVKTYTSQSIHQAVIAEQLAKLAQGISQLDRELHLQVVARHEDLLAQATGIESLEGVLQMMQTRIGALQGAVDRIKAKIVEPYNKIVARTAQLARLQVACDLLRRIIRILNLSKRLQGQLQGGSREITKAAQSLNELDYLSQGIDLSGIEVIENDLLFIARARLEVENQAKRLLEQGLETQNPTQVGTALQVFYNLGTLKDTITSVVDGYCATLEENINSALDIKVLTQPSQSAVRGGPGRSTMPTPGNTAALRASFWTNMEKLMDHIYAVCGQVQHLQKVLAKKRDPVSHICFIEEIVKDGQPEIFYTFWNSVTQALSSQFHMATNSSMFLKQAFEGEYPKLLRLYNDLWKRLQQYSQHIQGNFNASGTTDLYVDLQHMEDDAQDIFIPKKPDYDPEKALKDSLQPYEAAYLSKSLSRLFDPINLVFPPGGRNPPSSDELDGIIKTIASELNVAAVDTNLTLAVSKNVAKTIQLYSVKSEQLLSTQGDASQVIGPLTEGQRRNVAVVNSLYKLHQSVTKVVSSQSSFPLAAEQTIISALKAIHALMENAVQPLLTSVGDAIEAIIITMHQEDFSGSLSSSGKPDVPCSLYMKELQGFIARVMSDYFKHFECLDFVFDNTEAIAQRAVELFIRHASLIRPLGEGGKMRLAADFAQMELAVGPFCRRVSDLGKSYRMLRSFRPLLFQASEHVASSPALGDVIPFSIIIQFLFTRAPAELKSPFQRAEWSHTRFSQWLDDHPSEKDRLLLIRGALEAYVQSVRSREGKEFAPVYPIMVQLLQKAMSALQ
UniProt Q9Y3Z3: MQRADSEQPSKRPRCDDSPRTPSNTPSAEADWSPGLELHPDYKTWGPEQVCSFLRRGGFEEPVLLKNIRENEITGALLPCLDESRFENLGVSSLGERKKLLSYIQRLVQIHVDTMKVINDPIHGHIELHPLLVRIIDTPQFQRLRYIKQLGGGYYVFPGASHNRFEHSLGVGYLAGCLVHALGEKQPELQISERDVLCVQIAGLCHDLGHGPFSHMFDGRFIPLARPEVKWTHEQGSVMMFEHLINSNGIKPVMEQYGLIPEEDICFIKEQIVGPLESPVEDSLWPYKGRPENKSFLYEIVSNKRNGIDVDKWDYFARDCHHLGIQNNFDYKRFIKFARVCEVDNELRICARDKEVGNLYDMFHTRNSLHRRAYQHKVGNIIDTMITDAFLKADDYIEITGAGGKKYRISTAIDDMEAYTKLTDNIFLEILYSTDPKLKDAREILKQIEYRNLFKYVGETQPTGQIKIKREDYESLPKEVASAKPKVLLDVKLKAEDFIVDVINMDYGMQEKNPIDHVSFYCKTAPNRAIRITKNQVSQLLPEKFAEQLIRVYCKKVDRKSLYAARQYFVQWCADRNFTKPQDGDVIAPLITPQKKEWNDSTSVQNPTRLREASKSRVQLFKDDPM
UniProt Q9UNE7: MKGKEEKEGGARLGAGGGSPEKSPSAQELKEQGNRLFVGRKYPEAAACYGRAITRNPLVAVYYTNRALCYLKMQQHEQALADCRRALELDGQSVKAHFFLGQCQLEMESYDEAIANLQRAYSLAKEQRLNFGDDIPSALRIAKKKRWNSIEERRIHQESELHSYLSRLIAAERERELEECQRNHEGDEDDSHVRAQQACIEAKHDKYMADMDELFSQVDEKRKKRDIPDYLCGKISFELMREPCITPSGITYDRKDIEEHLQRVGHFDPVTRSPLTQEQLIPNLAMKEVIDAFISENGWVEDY
UniProt Q9Y3C8: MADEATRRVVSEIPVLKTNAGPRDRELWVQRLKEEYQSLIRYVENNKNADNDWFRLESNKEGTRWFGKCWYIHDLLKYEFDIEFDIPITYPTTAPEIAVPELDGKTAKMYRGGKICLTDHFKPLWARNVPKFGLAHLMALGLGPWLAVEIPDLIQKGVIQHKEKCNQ

These targets were tested with COC(=O)/C=C/c1ccccc1 [methyl cinnamate] (assay: log2 ratio of iodoacetamide-alkyne labeling of the cysteine site, DMSO over compound (competition); higher = stronger covalent engagement of the cysteine by the compound, active = 1 or more). Details: 500 µM; treatment time 1 h; system: HEK293T cell lysate.
Procedure, shortened: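 The log2 competition ratio per cysteine is defined as mean reporter intensity in control channels over mean reporter intensity in compound channels. Lysate from HEK293T cells (2 mg/mL) received electrophile (500 µM) or vehicle for 1 h at ambient temperature, followed by iodoacetamide alkyne for 1 h. Samples were clicked to sCIP-TMT reagents, pooled, trypsin-digested overnight at 37 °C, streptavidin-enriched, acid-eluted and run on Orbitrap Eclipse LC-MS/MS with FAIMS, with quantification in FragPipe. Three replicates with duplicate channels were used, and any cysteine quantified in only one replicate was excluded.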

log2 ratio of iodoacetamide-alkyne labeling, inactive:
NCKAP1 C622 (UniProt Q9Y2A7) 0.2, BAZ2A C1480 (UniProt Q9UIF9) 0.0318, GPN3 C219 (UniProt Q9UHW5) 0.383, SH3BP1 C338 (UniProt Q9Y3L3) 0.29, LSM7 C76 (UniProt Q9UK45) 0.289, NFU1 C213 (UniProt Q9UMS0) 0.536, UniProt Q9UKA8_C239 0.289, DDX52 C536 (UniProt Q9Y2R4) 0.194, UniProt Q9Y2K2_C333 0.323, RABGEF1 C359 (UniProt Q9UJ41) 0.125, NFU1 C210 (UniProt Q9UMS0) 0.65, UniProt Q9Y2K2_C223 0.378, TIMELESS C1126 (UniProt Q9UNS1) 0.521, MSRB2 C105 (UniProt Q9Y3D2) -0.0371, RASAL2 C360 (UniProt Q9UJF2) -0.302, PACSIN3 C421 (UniProt Q9UKS6) -0.0248, HECTD1 C1389 (UniProt Q9ULT8) 0.202, COG5 C64 (UniProt Q9UP83) 0.278, SAMHD1 C341 (UniProt Q9Y3Z3) 0.137, TRIM33 C145 (UniProt Q9UPN9) 0.309, STUB1 C244 (UniProt Q9UNE7) 0.567, UFC1 C116 (UniProt Q9Y3C8) 0.0511
